Consider 2 sequences from article PMC7242751.

Sequences of proteins named here, by UniProt entry; tags and fusion partners are left off. Residues count along the entry.
UniProt P02769, 25-607: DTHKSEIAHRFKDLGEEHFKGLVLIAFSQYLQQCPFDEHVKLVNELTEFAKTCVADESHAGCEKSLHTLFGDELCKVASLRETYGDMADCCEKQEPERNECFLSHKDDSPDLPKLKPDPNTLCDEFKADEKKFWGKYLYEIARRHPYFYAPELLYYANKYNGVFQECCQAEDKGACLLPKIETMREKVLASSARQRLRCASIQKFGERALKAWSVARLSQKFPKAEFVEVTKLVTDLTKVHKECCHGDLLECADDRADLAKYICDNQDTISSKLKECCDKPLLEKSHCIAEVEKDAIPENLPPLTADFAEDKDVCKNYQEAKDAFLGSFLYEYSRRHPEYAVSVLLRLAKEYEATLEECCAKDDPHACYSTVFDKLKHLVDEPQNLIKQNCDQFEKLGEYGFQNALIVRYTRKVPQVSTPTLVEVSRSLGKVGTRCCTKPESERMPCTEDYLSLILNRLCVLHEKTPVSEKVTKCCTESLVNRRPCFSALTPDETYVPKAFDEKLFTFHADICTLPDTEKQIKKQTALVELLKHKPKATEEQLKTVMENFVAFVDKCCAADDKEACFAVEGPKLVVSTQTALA

Series [1] concerns the target BSA (bovine) (UniProt P02769). Briefly: competition (NALFA). Particulars: 5-15 mg/mL BSA vs AuNP-CA125; KD in binding buffer (composition not restated), 2 h at RT; pH not stated; commercial protein; single-stranded DNA.
Series [2] concerns the target CA125 (native antigen) (human) (UniProt Q8WXI7). Description: membrane binding, elution and agarose gel. The note with it: KD in binding buffer (composition not restated), 2 h at RT, pH not stated, native protein, single-stranded DNA.
Series [3] deals with BSA (bovine) (UniProt P02769). Description: dot ELASA. Particulars: 4% BSA negative control; KD in binding buffer (composition not restated), 2 h at RT; pH not stated; commercial protein; single-stranded DNA.

For some of these results: A negative result means that nothing was seen under these conditions. For some of these results: At least one verdict was read from the data and is not stated in words by the source. For some of these results: Construct, isoform or probe ends are uncertain for at least one entry.

Regarding “TAGGGAAGAGAAGGACATATGATTTTAGGGAAGAGAAGGACTTTTATGCCGCCTTGACTAGTACATGACCACTTGA [Apt 2.26]”, the binding result with BSA (bovine) [1] is “no binding”; in series [2] (100 mM NaCl, 5 mM MgCl2), “binds”; in series [2] (MilliQ water (positive control)), “binds”.
For “TAGGGAAGAGAAGGACATATGATTTTAGGGAAGAGAAGGACTTTTATGCCGCCTTGACTAGTACATGACCACTTGA [biotinylated Apt 2.26]”, the binding result with BSA (bovine) [3] is “no binding”.
